{"source": "paper PMC10382351", "about": "“In vivo evaluation of a novel ^18F-labeled PET radioligand for translocator protein 18 kDa (TSPO) in monkey brain” (European Journal of Nuclear Medicine and Molecular Imaging, 2023)", "test_system": "18 kDa translocator protein (TSPO)", "assay": "PET imaging of [^18F]SF51 in rhesus monkey brain with kinetic analysis (2TCM, Logan plot, Lassen plot)", "type": "in vivo", "settings": "for (Logan-2TCM)/2TCM × 100 %: VT/fP, n=3", "procedure": "Electrocardiogram, body temperature, heart rate, and respiratory rate measures were monitored throughout the scan.\nBrain PET imaging was performed using a microPET Focus 220 camera (Siemens Medical Solution; Knoxville, TN). […] For baseline experiments, 20 mL of a vehicle containing 20% (2-hydroxypropyl)-β-cyclodextrin and two equivalents of HCl were injected intravenously 10 min before radioligand administration. For the blocked experiment, PK11195 was dissolved in vehicle and then injected intravenously (5 mg/kg) 10 min before radioligand injection for all three monkeys. One of the three monkeys underwent an additional blocked scan with 5 mg/kg of PBR28, performed using a MultiScan™ LFER 150 PET/CT (Mediso USA, LLC; Arlington, VA). The interval between baseline and blocked imaging sessions was at least three weeks in order to allow the monkey to recover from arterial blood sampling. Focus 220 PET images were histogrammed into 30 time frames (6 × 30, 3 × 60, 2 × 120, 4 × 300, and 15 × 600 s) and reconstructed using Fourier rebinning plus a two-dimensional filtered back-projection with scatter and attenuation correction. MultiScan LFER PET images were reconstructed with 3D-OSEM with two iterations and nine subsets and were corrected for scatter and attenuation.\nPET images were co-registered to a standardized monkey MRI template using PMOD software (PMOD version 4.1, PMOD Technologies Ltd.; Zurich, Switzerland). Thirty-three predefined regions of interest (ROIs) from a monkey brain template were applied to the co-registered PET images to obtain regional time-activity curves (Supplementary Table S2). Brain uptake was expressed as standardized uptake value (SUV), which normalizes for injected radioactivity and body weight. Using the brain time-activity curves and the radiometabolite-corrected arterial input function, the total VT was derived from a two-tissue compartment model (2TCM). Receptor occupancy by PK11195 and nondisplaceable distribution volume (VND/fP) of [^18F]SF51 were determined by an axes-transformed Lassen plot, where the y-axis reports the difference in VT between the baseline and the blocked scans, corrected by the respective fp values, and the x-axis reports the values at baseline (VTbase/fPbase).", "data": [{"smiles": "CC[C@@H](C)N(C)C(=O)c1nc(-c2cccc([18F])c2)c2ccccc2n1", "note": "[[^18F]SF51]", "values": [{"measurement": "(Logan-2TCM)/2TCM × 100 %", "setting": "Baseline, Amygdala", "result": -5.5, "unit": "%"}, {"measurement": "(Logan-2TCM)/2TCM × 100 %", "setting": "Baseline, Cerebellum", "result": -4.2, "unit": "%"}, {"measurement": "(Logan-2TCM)/2TCM × 100 %", "setting": "Baseline, Cingulate Cortex", "result": -4.6, "unit": "%"}, {"measurement": "(Logan-2TCM)/2TCM × 100 %", "setting": "Baseline, Frontal Cortex", "result": -4.3, "unit": "%"}, {"measurement": "(Logan-2TCM)/2TCM × 100 %", "setting": "Baseline, Hippocampus", "result": -4.1, "unit": "%"}, {"measurement": "(Logan-2TCM)/2TCM × 100 %", "setting": "Baseline, Insula", "result": -4.3, "unit": "%"}, {"measurement": "(Logan-2TCM)/2TCM × 100 %", "setting": "Baseline, Occipital Cortex", "result": -4.4, "unit": "%"}, {"measurement": "(Logan-2TCM)/2TCM × 100 %", "setting": "Baseline, Parietal Cortex", "result": -4.4, "unit": "%"}, {"measurement": "(Logan-2TCM)/2TCM × 100 %", "setting": "Baseline, Striatum", "result": -4.4, "unit": "%"}, {"measurement": "(Logan-2TCM)/2TCM × 100 %", "setting": "Baseline, Temporal Cortex", "result": -4.2, "unit": "%"}, {"measurement": "(Logan-2TCM)/2TCM × 100 %", "setting": "Baseline, Thalamus", "result": -4.4, "unit": "%"}, {"measurement": "(Logan-2TCM)/2TCM × 100 %", "setting": "Baseline, Whole Brain", "result": -4.4, "unit": "%"}, {"measurement": "(Logan-2TCM)/2TCM × 100 %", "setting": "Blocked (PK11195), Amygdala", "result": -0.3, "unit": "%"}, {"measurement": "(Logan-2TCM)/2TCM × 100 %", "setting": "Blocked (PK11195), Cerebellum", "result": -2.6, "unit": "%"}, {"measurement": "(Logan-2TCM)/2TCM × 100 %", "setting": "Blocked (PK11195), Cingulate Cortex", "result": -2.6, "unit": "%"}, {"measurement": "(Logan-2TCM)/2TCM × 100 %", "setting": "Blocked (PK11195), Frontal Cortex", "result": -2.6, "unit": "%"}, {"measurement": "(Logan-2TCM)/2TCM × 100 %", "setting": "Blocked (PK11195), Hippocampus", "result": -1.3, "unit": "%"}, {"measurement": "(Logan-2TCM)/2TCM × 100 %", "setting": "Blocked (PK11195), Insula", "result": -2.4, "unit": "%"}, {"measurement": "(Logan-2TCM)/2TCM × 100 %", "setting": "Blocked (PK11195), Occipital Cortex", "result": -1.7, "unit": "%"}, {"measurement": "(Logan-2TCM)/2TCM × 100 %", "setting": "Blocked (PK11195), Parietal Cortex", "result": -2.1, "unit": "%"}, {"measurement": "(Logan-2TCM)/2TCM × 100 %", "setting": "Blocked (PK11195), Striatum", "result": -1.5, "unit": "%"}, {"measurement": "(Logan-2TCM)/2TCM × 100 %", "setting": "Blocked (PK11195), Temporal Cortex", "result": -1.7, "unit": "%"}, {"measurement": "(Logan-2TCM)/2TCM × 100 %", "setting": "Blocked (PK11195), Thalamus", "result": -4.9, "unit": "%"}, {"measurement": "(Logan-2TCM)/2TCM × 100 %", "setting": "Blocked (PK11195), Whole Brain", "result": -1.8, "unit": "%"}, {"measurement": "Negative bias of Logan-plot versus 2TCM", "setting": "baseline scans", "result": "about 4%"}, {"measurement": "Negative bias of Logan-plot versus 2TCM", "setting": "blocked scans", "result": "~2", "unit": "%"}, {"measurement": "Deviation of VT from that at 180 min", "setting": "monkey brain regions, within 100 min of imaging", "result": "≤ 10", "unit": "%"}]}]}
